Experimental data: PubChem BioAssay AID1224830 (NIAID, 2016)
Aim: 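Genes whose knock-down alters the TNF-alpha reporter response to LPS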 (primary screen). System: human THP-1 monocytic leukaemia cells, TNF dual-luciferase reporter clone, PMA-differentiated to macrophage-like cells. Reagent: siRNA pool against human genes, 50 nM. Timing: LPS for 4 h, given about 3 days after siRNA transfection. Conditions: bacterial LPS (TLR4 ligand), 10 ng/ml. Read-out: 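TNF firefly reporter luminescence divided by renilla, normalised to the plate median, then turned into a robust z-score for each replicate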. Direction: TNF reporter robust z-score: higher = stronger TNF reporter response to LPS. Active means: 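a well is active when its z-score exceeds 2.8 or falls below -1.5; control wells carry no call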.
In all, the deposit lists about 18,000 reagents; shown is a random part of them. About 2,900 of them (16%) count as active. 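Calls are made per well; low scores hint the gene aids the LPS response, high scores that it dampens it.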 Entries without a mark were called inactive. The numbers tell different reagents against one gene apart. Repeated entries: four replicate wells of each siRNA pool.

| TNF reporter robust z-score | Target gene | reagent |
| --- | --- | --- |
| -1.08 | RARB | 1 |
| -0.9 | RARB | 1 |
| -0.66 | RARB | 1 |
| -0.57 | RARB | 1 |
| 0.91 | DUX4L1 | 1 |
| 0.65 | DUX4L1 | 1 |
| -0.26 | DUX4L1 | 1 |
| -0.44 | DUX4L1 | 1 |
| -1.68 (active) | LATS1 | 1 |
| -0.43 | LATS1 | 1 |
| 0.23 | LATS1 | 1 |
| -0.65 | LATS1 | 1 |
| 0.58 | RBM25 | 1 |
| -0.12 | RBM25 | 1 |
| 0.6 | RBM25 | 1 |
| 0.82 | RBM25 | 1 |
| 2.71 | HTRA2 | 1 |
| 6.07 (active) | HTRA2 | 1 |
| 1.82 | HTRA2 | 1 |
| 3.58 (active) | HTRA2 | 1 |
| 2.19 | CA11 | 1 |
| 0.79 | CA11 | 1 |
| -0.38 | CA11 | 1 |
| 0.52 | CA11 | 1 |
| -0.41 | LCE2D | 1 |
| 1.49 | LCE2D | 1 |
| 0.5 | LCE2D | 1 |
| 2.88 (active) | LCE2D | 1 |
| -0.51 | FAM50B | 1 |
| -0.78 | FAM50B | 1 |
| -0.23 | FAM50B | 1 |
| -0.38 | FAM50B | 1 |
| -0.33 | NADK | 1 |
| 1.16 | NADK | 1 |
| -0.76 | NADK | 1 |
| -0.02 | NADK | 1 |
| -0.36 | ADGRE5 | 1 |
| -0.76 | ADGRE5 | 1 |
| -0.99 | ADGRE5 | 1 |
| 0.04 | ADGRE5 | 1 |
| 0.24 | MECOM | 1 |
| -0.99 | MECOM | 1 |
| 0.04 | MECOM | 1 |
| 0.66 | MECOM | 1 |
| 1.89 | MECOM | 2 |
| 1.96 | MECOM | 2 |
| 1.27 | MECOM | 2 |
| 2.26 | MECOM | 2 |
| 0.18 | CP | 1 |
| 1.29 | CP | 1 |
| 1.11 | CP | 1 |
| 1.62 | CP | 1 |

More reagents:
| TNF reporter robust z-score | Target gene | reagent |
| --- | --- | --- |
| 0.95 | RAD9B | 1 |
| 1.35 | RAD9B | 1 |
| 0.36 | RAD9B | 1 |
| -0.3 | RAD9B | 1 |
| -0.68 | CSF2 | 1 |
| -1.01 | CSF2 | 1 |
| -1.02 | CSF2 | 1 |
| 0.62 | SLC39A7 | 1 |
| 0.6 | SLC39A7 | 1 |
| 0.65 | SLC39A7 | 1 |
| 1.24 | SLC39A7 | 1 |
| 1.37 | DDHD1 | 1 |
| 1.65 | DDHD1 | 1 |
| 0.4 | DDHD1 | 1 |
| -0.11 | DDHD1 | 1 |
| 2.57 | NAP1L4 | 1 |
| 1.43 | NAP1L4 | 1 |
| -1.36 | NAP1L4 | 1 |
| 0.15 | NAP1L4 | 1 |
| 0.03 | IL10RB | 1 |
| -0.13 | IL10RB | 1 |
| -1.04 | IL10RB | 1 |
| -1.16 | IL10RB | 1 |
| 0.05 | TIMMDC1 | 1 |
| 0.58 | TIMMDC1 | 1 |
| -0.36 | TIMMDC1 | 1 |
| 1.65 | TIMMDC1 | 1 |
| -1.05 | CASP6 | 1 |
| -0.47 | CASP6 | 1 |
| 0.18 | CASP6 | 1 |
| -0.27 | CASP6 | 1 |
| 2.3 | MSRB1 | 1 |
| 3.18 (active) | MSRB1 | 1 |
| 1.9 | MSRB1 | 1 |
| 3.66 (active) | MSRB1 | 1 |
| -0.66 | PRRX1 | 1 |
| -0.22 | PRRX1 | 1 |
| -1.01 | PRRX1 | 1 |
| -0.49 | PRRX1 | 1 |
| 2.12 | INAVA | 1 |
| 0.55 | INAVA | 1 |
| 1.85 | INAVA | 1 |
| 1.14 | INAVA | 1 |
| -1.21 | TPPP3 | 1 |
| -0.72 | TPPP3 | 1 |
| -0.52 | TPPP3 | 1 |
| 0.33 | TPPP3 | 1 |
| -0.87 | H2BC17 | 1 |
| -1.06 | H2BC17 | 1 |
| -1.39 | H2BC17 | 1 |
| -1.08 | H2BC17 | 1 |
| -1.41 | LAT | 1 |
| -0.88 | LAT | 1 |
| -1.44 | LAT | 1 |
| -0.65 | LAT | 1 |
| 0.27 | NUP85 | 1 |
| 0.92 | NUP85 | 1 |
| 0.5 | NUP85 | 1 |
| -0.55 | NUP85 | 1 |
